Test results from article PMC12624556.
No constants are given. Whether binding was seen depends on the method and setting. In cells and extracts the contact can be indirect. Some binding calls cover weakened binding; strength is not graded here.

Chains of the proteins cited; added tags and fusions are not shown.
UniProt O14746: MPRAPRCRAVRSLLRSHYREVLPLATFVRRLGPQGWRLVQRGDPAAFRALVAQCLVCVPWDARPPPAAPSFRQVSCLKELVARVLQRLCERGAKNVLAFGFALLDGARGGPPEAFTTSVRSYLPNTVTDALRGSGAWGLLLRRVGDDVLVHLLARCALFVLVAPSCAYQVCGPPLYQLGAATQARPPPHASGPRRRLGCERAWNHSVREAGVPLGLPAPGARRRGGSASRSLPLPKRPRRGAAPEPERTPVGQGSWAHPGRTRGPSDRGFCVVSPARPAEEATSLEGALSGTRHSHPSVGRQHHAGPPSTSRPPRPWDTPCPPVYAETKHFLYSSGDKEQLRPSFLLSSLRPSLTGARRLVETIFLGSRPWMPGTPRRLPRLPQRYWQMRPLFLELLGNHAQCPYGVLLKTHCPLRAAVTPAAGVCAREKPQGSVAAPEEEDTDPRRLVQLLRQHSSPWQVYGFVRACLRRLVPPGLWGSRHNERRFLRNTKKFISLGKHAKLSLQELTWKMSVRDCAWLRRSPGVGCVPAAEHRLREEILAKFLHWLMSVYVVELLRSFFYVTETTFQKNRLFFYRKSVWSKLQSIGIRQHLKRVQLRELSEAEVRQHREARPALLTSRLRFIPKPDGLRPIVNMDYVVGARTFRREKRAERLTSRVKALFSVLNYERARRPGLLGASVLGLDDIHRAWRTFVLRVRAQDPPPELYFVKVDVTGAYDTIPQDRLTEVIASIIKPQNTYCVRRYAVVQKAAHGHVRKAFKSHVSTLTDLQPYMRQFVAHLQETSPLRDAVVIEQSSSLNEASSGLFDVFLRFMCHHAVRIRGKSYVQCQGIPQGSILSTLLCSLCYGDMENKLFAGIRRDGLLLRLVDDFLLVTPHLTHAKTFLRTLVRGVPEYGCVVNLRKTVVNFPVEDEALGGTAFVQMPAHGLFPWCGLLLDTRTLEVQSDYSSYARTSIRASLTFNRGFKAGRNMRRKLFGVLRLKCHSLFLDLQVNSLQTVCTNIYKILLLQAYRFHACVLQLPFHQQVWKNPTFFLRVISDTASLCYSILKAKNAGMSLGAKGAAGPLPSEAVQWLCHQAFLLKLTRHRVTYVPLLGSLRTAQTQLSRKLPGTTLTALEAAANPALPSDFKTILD
UniProt Q15554: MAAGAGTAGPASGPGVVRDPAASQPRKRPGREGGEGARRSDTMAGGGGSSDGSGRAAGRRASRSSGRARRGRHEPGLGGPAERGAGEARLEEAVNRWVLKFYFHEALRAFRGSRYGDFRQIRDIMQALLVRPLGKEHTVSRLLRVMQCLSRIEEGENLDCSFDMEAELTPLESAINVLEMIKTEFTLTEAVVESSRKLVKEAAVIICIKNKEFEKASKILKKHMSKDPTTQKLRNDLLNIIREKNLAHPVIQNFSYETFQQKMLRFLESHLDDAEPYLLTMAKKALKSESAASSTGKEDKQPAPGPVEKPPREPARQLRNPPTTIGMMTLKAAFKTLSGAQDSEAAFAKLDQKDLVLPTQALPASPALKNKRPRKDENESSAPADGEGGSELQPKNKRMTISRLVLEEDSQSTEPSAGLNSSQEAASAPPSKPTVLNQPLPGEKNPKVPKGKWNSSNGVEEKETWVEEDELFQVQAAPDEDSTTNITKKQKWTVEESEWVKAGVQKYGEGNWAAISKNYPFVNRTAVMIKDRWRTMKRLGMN
UniProt Q9Y265: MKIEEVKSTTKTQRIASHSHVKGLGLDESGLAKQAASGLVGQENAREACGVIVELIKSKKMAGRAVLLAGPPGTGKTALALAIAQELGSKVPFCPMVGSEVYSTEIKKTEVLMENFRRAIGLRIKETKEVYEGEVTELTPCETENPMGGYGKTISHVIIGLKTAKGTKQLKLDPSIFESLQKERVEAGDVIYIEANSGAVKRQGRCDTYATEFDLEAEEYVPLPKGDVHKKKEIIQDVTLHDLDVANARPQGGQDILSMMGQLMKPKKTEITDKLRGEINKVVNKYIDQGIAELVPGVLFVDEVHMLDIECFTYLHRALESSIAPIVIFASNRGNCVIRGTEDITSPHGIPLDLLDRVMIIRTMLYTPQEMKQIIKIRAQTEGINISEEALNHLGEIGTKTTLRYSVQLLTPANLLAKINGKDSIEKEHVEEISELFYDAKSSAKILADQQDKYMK
UniProt Q9BUR4: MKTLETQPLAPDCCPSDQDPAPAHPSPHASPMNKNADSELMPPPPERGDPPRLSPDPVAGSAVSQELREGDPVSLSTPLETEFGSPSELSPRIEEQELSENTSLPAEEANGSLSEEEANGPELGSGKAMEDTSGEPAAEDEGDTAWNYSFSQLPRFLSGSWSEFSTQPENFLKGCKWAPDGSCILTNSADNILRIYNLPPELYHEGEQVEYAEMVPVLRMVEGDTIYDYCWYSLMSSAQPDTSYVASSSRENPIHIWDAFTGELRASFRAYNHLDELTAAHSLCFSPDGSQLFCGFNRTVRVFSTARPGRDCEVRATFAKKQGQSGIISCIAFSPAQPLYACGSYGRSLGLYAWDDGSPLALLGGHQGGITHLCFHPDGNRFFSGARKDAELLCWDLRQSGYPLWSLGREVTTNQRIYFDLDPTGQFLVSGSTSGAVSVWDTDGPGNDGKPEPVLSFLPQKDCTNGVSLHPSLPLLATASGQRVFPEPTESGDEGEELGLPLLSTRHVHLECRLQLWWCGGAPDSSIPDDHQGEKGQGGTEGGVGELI

T1: CTC1-STN1-TEN1 (CST)/alpha accessory factor (AAF) (human (endogenous in Huh 7)), Q2NKJ3
T1 chain 1: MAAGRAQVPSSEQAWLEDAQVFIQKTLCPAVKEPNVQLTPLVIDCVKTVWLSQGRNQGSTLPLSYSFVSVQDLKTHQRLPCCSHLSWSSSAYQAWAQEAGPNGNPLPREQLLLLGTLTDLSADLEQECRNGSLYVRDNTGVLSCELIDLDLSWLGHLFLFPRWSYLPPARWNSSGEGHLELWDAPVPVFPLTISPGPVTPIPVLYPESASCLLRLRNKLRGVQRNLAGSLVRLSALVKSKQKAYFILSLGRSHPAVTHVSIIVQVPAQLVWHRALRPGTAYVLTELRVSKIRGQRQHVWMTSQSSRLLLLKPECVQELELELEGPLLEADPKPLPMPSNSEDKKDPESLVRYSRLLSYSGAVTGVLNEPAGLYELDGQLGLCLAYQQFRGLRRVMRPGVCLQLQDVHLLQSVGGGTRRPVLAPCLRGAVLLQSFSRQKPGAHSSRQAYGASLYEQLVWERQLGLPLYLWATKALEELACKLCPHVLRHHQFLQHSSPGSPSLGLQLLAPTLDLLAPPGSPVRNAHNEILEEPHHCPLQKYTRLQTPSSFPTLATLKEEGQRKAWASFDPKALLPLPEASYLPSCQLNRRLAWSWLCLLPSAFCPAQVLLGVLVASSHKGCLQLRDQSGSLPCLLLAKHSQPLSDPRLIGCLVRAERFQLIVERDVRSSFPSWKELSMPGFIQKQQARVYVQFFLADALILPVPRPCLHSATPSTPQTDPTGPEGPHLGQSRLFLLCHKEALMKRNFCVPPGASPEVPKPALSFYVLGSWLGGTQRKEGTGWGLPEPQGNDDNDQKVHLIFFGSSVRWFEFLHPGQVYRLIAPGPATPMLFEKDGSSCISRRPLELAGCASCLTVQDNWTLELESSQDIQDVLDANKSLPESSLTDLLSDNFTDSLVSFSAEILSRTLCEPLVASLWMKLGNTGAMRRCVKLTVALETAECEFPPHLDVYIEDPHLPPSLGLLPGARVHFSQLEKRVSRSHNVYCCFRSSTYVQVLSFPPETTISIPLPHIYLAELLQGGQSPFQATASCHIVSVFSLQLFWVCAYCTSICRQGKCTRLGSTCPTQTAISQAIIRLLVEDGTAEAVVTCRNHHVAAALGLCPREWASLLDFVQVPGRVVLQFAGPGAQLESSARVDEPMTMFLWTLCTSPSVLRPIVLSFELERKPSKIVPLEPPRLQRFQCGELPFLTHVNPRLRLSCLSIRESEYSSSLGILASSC
T1 chain 2: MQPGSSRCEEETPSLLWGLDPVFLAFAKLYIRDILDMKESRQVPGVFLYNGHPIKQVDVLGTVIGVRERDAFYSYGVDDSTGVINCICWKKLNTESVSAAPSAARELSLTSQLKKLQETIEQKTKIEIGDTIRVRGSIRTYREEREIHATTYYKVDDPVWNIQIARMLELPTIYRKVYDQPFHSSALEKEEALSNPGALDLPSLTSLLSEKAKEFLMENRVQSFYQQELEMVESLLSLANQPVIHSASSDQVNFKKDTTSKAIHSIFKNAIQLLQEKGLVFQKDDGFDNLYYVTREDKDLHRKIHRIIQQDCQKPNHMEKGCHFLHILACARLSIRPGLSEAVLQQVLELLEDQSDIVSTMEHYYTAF
T1 chain 3: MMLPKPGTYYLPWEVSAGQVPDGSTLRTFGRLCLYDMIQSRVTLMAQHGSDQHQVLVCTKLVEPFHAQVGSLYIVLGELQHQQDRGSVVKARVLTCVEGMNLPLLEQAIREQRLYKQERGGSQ


Legend:
Assay in all cases: co-IP; Huh 7 cells infected with rLV, rLV-CALR or rLV-CALR + rLV-shRNA-ARAF; IgG Co-IP as negative control
[1] = target: telomerase reverse transcriptase (human (endogenous in Huh 7)) (UniProt O14746)
[2] = target: telomeric repeat binding factor 2 (human (endogenous in Huh 7)) (UniProt Q15554)
[3] = target: T1, CTC1-STN1-TEN1 (CST)/alpha accessory …; conditions: remark: other sources report otherwise

Row | Molecule | binding [1] | binding [2] | also measured
1 | Pontin (from UniProt Q9Y265 1-456) | binds |  | 
2 | centromere/microtubule binding protein 5 (protein, UniProt O60832 1-514) MADAEVIILPKKHKKKKERKSLPEEDVAEIQHAEEFLIKPESKVAKLDTSQWPLLLKNFDKLNVRTTHYTPLACGSNPLKREIGDYIRTGFINLDKPSNPSSHEVVAWIRRILRVEKTGHSGTLDPKVTGCLIVCIERATRLVKSQQSAGKEYVGIVRLHNAIEGGTQLSRALETLTGALFQRPPLIAAVKRQLRVRTIYESKMIEYDPERRLGIFWVSCEAGTYIRTLCVHLGLLLGVGGQMQELRRVRSGVMSEKDHMVTMHDVLDAQWLYDNHKDESYLRRVVYPLEKLLTSHKRLVMKDSAVNAICYGAKIMLPGVLRYEDGIEVNQEIVVITTKGEAICMAIALMTTAVISTCDHGIVAKIKRVIMERDTYPRKWGLGPKASQKKLMIKQGLLDKHGKPTDSTPATWKQEYVDYSESAKKEVVAEVVKAPQVVAEAAKTAKRKRESESESDETPPAAPQLIKKEKKKSKKDKKAKAGLESGAEPGDGDSDTTKKKKKKKKAKEVELVSE | binds |  | 
3 | TERF1 interacting nuclear factor 2 (protein, UniProt Q9BSI4 1-451) MATPLVAGPAALRFAAAASWQVVRGRCVEHFPRVLEFLRSLRAVAPGLVRYRHHERLCMGLKAKVVVELILQGRPWAQVLKALNHHFPESGPIVRDPKATKQDLRKILEAQETFYQQVKQLSEAPVDLASKLQELEQEYGEPFLAAMEKLLFEYLCQLEKALPTPQAQQLQDVLSWMQPGVSITSSLAWRQYGVDMGWLLPECSVTDSVNLAEPMEQNPPQQQRLALHNPLPKAKPGTHLPQGPSSRTHPEPLAGRHFNLAPLGRRRVQSQWASTRGGHKERPTVMLFPFRNLGSPTQVISKPESKEEHAIYTADLAMGTRAASTGKSKSPCQTLGGRALKENPVDLPATEQKENCLDCYMDPLRLSLLPPRARKPVCPPSLCSSVITIGDLVLDSDEEENGQGEGKESLENYQKTKFDTLIPTLCEYLPPSGHGAIPVSSCDCRDSSRPL |  | binds | 
4 | protection of telomeres 1, Q9NUX5 1-634 (protein) MSLVPATNYIYTPLNQLKGGTIVNVYGVVKFFKPPYLSKGTDYCSVVTIVDQTNVKLTCLLFSGNYEALPIIYKNGDIVRFHRLKIQVYKKETQGITSSGFASLTFEGTLGAPIIPRTSSKYFNFTTEDHKMVEALRVWASTHMSPSWTLLKLCDVQPMQYFDLTCQLLGKAEVDGASFLLKVWDGTRTPFPSWRVLIQDLVLEGDLSHIHRLQNLTIDILVYDNHVHVARSLKVGSFLRIYSLHTKLQSMNSENQTMLSLEFHLHGGTSYGRGIRVLPESNSDVDQLKKDLESANLTANQHSDVICQSEPDDSFPSSGSVSLYEVERCQQLSATILTDHQYLERTPLCAILKQKAPQQYRIRAKLRSYKPRRLFQSVKLHCPKCHLLQEVPHEGDLDIIFQDGATKTPDVKLQNTSLYDSKIWTTKNQKGRKVAVHFVKNNGILPLSNECLLLIEGGTLSEICKLSNKFNSVIPVRSGHEDLELLDLSAPFLIQGTIHHYGCKQCSSLRSIQNLNSLVDKTSWIPSSVAEALGIVPLQYVFVMTFTLDDGTGVLEAYLMDSDKFFQIPASEVLMDDDLQKSVDMIMDMFCPPGIKIDAYPWLECFIKSYNVTNGTDNQICYQIFDTTVAEDVI |  |  | binding [3]: binds

Continued, in another order:

Row | binding [1] | binding [2] | Molecule | also measured
5 | binds |  | telomerase Cajal body protein 1 (from UniProt Q9BUR4 1-548) | 
6 |  | binds | sensitivity to nitrogen mustard 1 (SNM1B) (protein, UniProt Q9H816 1-532) MNGVLIPHTPIAVDFWSLRRAGTARLFFLSHMHSDHTVGLSSTWARPLYCSPITAHLLHRHLQVSKQWIQALEVGESHVLPLDEIGQETMTVTLLDANHCPGSVMFLFEGYFGTILYTGDFRYTPSMLKEPALTLGKQIHTLYLDNTNCNPALVLPSRQEAAHQIVQLIRKHPQHNIKIGLYSLGKESLLEQLALEFQTWVVLSPRRLELVQLLGLADVFTVEEKAGRIHAVDHMEICHSNMLRWNQTHPTIAILPTSRKIHSSHPDIHVIPYSDHSSYSELRAFVAALKPCQVVPIVSRRPCGGFQDSLSPRISVPLIPDSVQQYMSSSSRKPSLLWLLERRLKRPRTQGVVFESPEESADQSQADRDSKKAKKEKLSPWPADLEKQPSHHPLRIKKQLFPDLYSKEWNKAVPFCESQKRVTMLTAPLGFSVHLRSTDEEFISQKTREEIGLGSPLVPMGDDDGGPEATGNQSAWMGHGSPLSHSSKGTPLLATEFRGLALKYLLTPVNFFQAGYSSRRFDQQVEKYHKPC | 
7 |  | binds | regulator of telomere elongation helicase (protein, UniProt Q9NZ71 1-1219) MPKIVLNGVTVDFPFQPYKCQQEYMTKVLECLQQKVNGILESPTGTGKTLCLLCTTLAWREHLRDGISARKIAERAQGELFPDRALSSWGNAAAAAGDPIACYTDIPKIIYASRTHSQLTQVINELRNTSYRPKVCVLGSREQLCIHPEVKKQESNHLQIHLCRKKVASRSCHFYNNVEEKSLEQELASPILDIEDLVKSGSKHRVCPYYLSRNLKQQADIIFMPYNYLLDAKSRRAHNIDLKGTVVIFDEAHNVEKMCEESASFDLTPHDLASGLDVIDQVLEEQTKAAQQGEPHPEFSADSPSPGLNMELEDIAKLKMILLRLEGAIDAVELPGDDSGVTKPGSYIFELFAEAQITFQTKGCILDSLDQIIQHLAGRAGVFTNTAGLQKLADIIQIVFSVDPSEGSPGSPAGLGALQSYKVHIHPDAGHRRTAQRSDAWSTTAARKRGKVLSYWCFSPGHSMHELVRQGVRSLILTSGTLAPVSSFALEMQIPFPVCLENPHIIDKHQIWVGVVPRGPDGAQLSSAFDRRFSEECLSSLGKALGNIARVVPYGLLIFFPSYPVMEKSLEFWRARDLARKMEALKPLFVEPRSKGSFSETISAYYARVAAPGSTGATFLAVCRGKASEGLDFSDTNGRGVIVTGLPYPPRMDPRVVLKMQFLDEMKGQGGAGGQFLSGQEWYRQQASRAVNQAIGRVIRHRQDYGAVFLCDHRFAFADARAQLPSWVRPHVRVYDNFGHVIRDVAQFFRVAERTMPAPAPRATAPSVRGEDAVSEAKSPGPFFSTRKAKSLDLHVPSLKQRSSGSPAAGDPESSLCVEYEQEPVPARQRPRGLLAALEHSEQRAGSPGEEQAHSCSTLSLLSEKRPAEEPRGGRKKIRLVSHPEEPVAGAQTDRAKLFMVAVKQELSQANFATFTQALQDYKGSDDFAALAACLGPLFAEDPKKHNLLQGFYQFVRPHHKQQFEEVCIQLTGRGCGYRPEHSIPRRQRAQPVLDPTGRTAPDPKLTVSTAAAQQLDPQEHLNQGRPHLSPRPPPTGDPGSQPQWGSGVPRAGKQGQHAVSAYLADARRALGSAGCSQLLAALTAYKQDDDLDKVLAVLAALTTAKPEDFPLLHRFSMFVRPHHKQRFSQTCTDLTGRPYPGMEPPGPQEERLAVPPVLTHRAPQPGPSRSEKTGKTQSKISSFLRQRPAGTVGAGGEDAGPSQSSGPPHGPAASEWGL | 
